Taken from: PubChem BioAssay AID652259 (Drosophila RNAi Screening Center, 2013)

Aim: 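Identify new Wingless signalling regulators in fly cells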 (primary screen)
Cell system: Drosophila clone 8 imaginal disc epithelial cells
Reagents: long dsRNA against Drosophila genes
Conditions: pathway stimulated by co-transfected Wingless expression plasmid
Measured: 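Firefly luciferase from a tcf-site Wingless reporter, measured alongside co-transfected Renilla luciferase that tracks transfection; pathway stimulated by a Wingless plasmid; the firefly-to-Renilla ratio is not deposited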
Reading the numbers: firefly reporter light: higher = more Wg reporter light, before normalisation; Renilla control light: higher = more transfected or surviving cells
Active means: 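Strong candidates differ from their plate mean by at least two out of four per-plate statistical tests; weak candidates meet just one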
Calls: active = candidate regulator (raises or lowers reporter); inactive = not a candidate
In all, the deposit lists about 22,000 reagents; below is an unselected part of those that have a named target and a result. Over the whole deposit, 233 (1.1%) got an active call. 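Light values are raw, unnormalised plate reads; the ratio scores behind the reporter calls were not deposited.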 Unmarked entries are inactive. The numbers tell different reagents against one gene apart. Names joined by + are all predicted targets of the reagent. Not given: the amount of reagent, the time to read-out, the dose of the treatment.

The first 2 records, to show the layout:
gene | reagent | firefly reporter light, replicate 1 | firefly reporter light, replicate 2 | Renilla control light, replicate 1 | Renilla control light, replicate 2
MED30 | 1 | 13977 | – | 2327 | –
CG18269 | 1 | 3174 | 5303 | 810 | 1913

Results, from the first entry:
gene | reagent | firefly reporter light, replicate 1 | firefly reporter light, replicate 2 | Renilla control light, replicate 1 | Renilla control light, replicate 2
MED30 | 1 | 13977 | – | 2327 | –
CG18269 | 1 | 3174 | 5303 | 810 | 1913
CG31157 | 1 | 4.37e5 | 5.52e5 | 2.14e5 | 2.37e5
CG13306 | 1 | 929 | 7738 | 729 | 3184
Rbpn-5 | 1 | 10635 | – | 3141 | –
CG30467 | 1 | 8074 | – | 1937 | –
dlt | 1 | 3824 | – | 2450 | –
CG13070 | 1 | 5605 | – | 2933 | –
CG42674 | 1 | 5255 | – | 1559 | –
CG42674 | 2 | 18464 | – | 5153 | –
CG42674 | 3 | 24976 | – | 6214 | –
RecQ5 | 1 | 4272 | – | 1708 | –
OtopLb | 1 | 10875 | – | 2843 | –
asl | 1 | 6242 | – | 2993 | –
CG13078 | 1 | 2902 | 4870 | 672 | 1787
smal | 1 | 4321 | 10054 | 1188 | 3226
smal | 2 | 2869 | 6821 | 675 | 2179
smal | 3 | 2685 | 6683 | 705 | 2727
smal | 4 | 3249 | 6928 | 801 | 2413
smal | 5 | 6.27e5 | 6.88e5 | 2.41e5 | 3.02e5
AP-2alpha | 1 | 7057 | 14763 | 933 | 2842
CG6885 | 1 | 5830 | – | 1888 | –
CG14591 | 1 | 3973 | 7584 | 1040 | 2859
CG14628 | 1 | 23287 | – | 14170 | –
TTLL4A | 1 | 20288 | – | 6553 | –
CG10841 | 1 | 10556 | – | 4455 | –
Vang | 1 | 4299 | 12066 | 1318 | 4321
CR14033 | 1 | 15691 | – | 4803 | –
CG1946 | 1 | 3360 | 8484 | 960 | 3048
CG5050 | 1 | 2433 | 7521 | 1339 | 3457
PK2-R1 | 1 | 11851 | – | 2493 | –
CG5895 | 1 | 7872 | – | 3527 | –
Osi13 | 1 | 9318 | – | 1619 | –
E(spl)mbeta-HLH | 1 | 1712 | 7264 | 664 | 2960
CG31106 | 1 | 13104 | – | 10306 | –
Leash | 1 | 14022 | – | 3042 | –
CG32450 | 1 | 3571 | – | 1642 | –
Obp57c | 1 | 5147 | – | 1610 | –
CG13954 | 1 | 1974 | 6903 | 490 | 1800
eIF3f1 | 1 | 11740 | – | 3264 | –
CG4960 | 1 | 18747 | – | 15588 | –
Cyfip | 1 | 12003 | – | 1872 | –
CG14854 | 1 | 14400 | – | 3800 | –
Mur2B | 1 | 20978 | – | 18809 | –
Mur2B | 2 | 28141 | – | 18693 | –
CG17650 | 1 | 2322 | 8739 | 897 | 2438
ND-B14.5B | 1 | 2600 | 8755 | 840 | 3281
CG12857 | 1 | 4797 | – | 2349 | –
Ice1 | 1 | 2618 | 5469 | 353 | 1106
Hsc70-3 | 1 | 17776 | – | 4528 | –
CG12920 | 1 | 3249 | 4608 | 792 | 1949
LysX | 1 | 5484 | – | 2482 | –
pdm2 | 1 | 2152 | 4266 | 874 | 2061
pdm2 | 2 | 2845 | 7168 | 614 | 2149
pdm2 | 3 | 2161 | 5474 | 789 | 2156
Abd-B | 1 | 12265 | – | 2134 | –
Abd-B | 2 | 17367 | – | 2440 | –
CG30058 + CG34235 + CG34312 | 1 | 14385 | – | 11784 | –
Dop2R | 1 | 27897 | – | 10897 | –
Dop2R | 2 | 28763 | – | 13927 | –
CG1724 | 1 | 14273 | – | 9930 | –
CG33627 | 1 | 19878 | – | 17766 | –
CG13364 | 1 | 24155 | – | 17072 | –
CG13364 | 2 | 16917 | – | 8960 | –
Roc1a | 1 | 25452 | – | 15952 | –
CCT6 | 1 | 2599 | 4483 | 1005 | 1612
ro | 1 | 4707 | – | 2025 | –
CG7309 | 1 | 3299 | 8517 | 1191 | 4621
Polr3K + Tcs1 | 1 | 8917 | – | 5270 | –
CG43293 | 1 | 4215 | – | 1709 | –
Ube4A | 1 | 11061 | – | 5013 | –
l(2)37Cb | 1 | 6859 | – | 2473 | –
Npc1b | 1 | 15523 | – | 8615 | –
